# Source: PubChem BioAssay AID652023 (National Center for Advancing Translational Sciences (NCATS), 2013)
# Sequences of proteins named here, by UniProt entry; tags and fusion partners are left off.
# UniProt O89049, whole entry, looked up: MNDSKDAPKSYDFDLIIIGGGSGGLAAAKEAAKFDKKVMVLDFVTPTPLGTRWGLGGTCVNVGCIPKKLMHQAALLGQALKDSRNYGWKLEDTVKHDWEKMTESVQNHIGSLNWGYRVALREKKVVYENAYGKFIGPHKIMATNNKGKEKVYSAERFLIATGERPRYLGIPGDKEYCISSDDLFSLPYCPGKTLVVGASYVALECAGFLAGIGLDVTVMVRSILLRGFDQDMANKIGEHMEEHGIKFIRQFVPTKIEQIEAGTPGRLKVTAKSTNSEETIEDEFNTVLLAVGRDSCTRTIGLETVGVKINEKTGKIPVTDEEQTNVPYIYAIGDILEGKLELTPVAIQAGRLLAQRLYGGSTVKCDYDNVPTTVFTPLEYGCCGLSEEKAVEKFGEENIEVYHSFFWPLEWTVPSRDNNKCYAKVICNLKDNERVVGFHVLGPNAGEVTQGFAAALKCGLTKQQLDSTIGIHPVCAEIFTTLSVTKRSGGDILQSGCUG
# Inconclusive means that the source gave no clear call. Such entries were picked first, then a sample of the others. Potencies beside an inconclusive call are fits to weak or partial responses and may not hold up. The source made the active and inactive calls. Calls follow the shape of the dose curve; as a rule, active = well fitted inhibition curve with a large enough effect; inconclusive = small, poorly fitted or top-dose-only effect; inactive = flat fitted curve, though single readings scatter.
# Target: Thioredoxin reductase 1, cytoplasmic (Rattus norvegicus) (UniProt O89049)
# Assay: qHTS Assay for Inhibitors of Mammalian Selenoprotein Thioredoxin Reductase 1 (TrxR1): Hit Validation in Primary Screen
# Settings: recombinant TrxR1, NADPH fluorescence consumption, selenite substrate
# Text: The selenoprotein thioredoxin reductase (TrxR; EC 1.8.1.9) is a FAD containing homodimeric pyridine nucleotide-disulfide oxidoreductase with many cellular roles. Together with NADPH and its prime substrate thioredoxin (Trx), the enzyme forms the core of the Trx system. The mammalian Trx system exerts a wide spectrum of functions including redox regulation, antioxidant defense, regulation of transcription factors as well as support of cell growth and replication. Many of these functions involve the reduction of Trx, which may subsequently reduce a number of different substrates including ribonucleotide reductase, peroxiredoxins or NFkB. Mammalian TrxR itself also has a broad substrate specificity, reducing both protein and non-protein substrates, including low molecular weight compounds such as dehydroascorbate, lipoic acid, ubiquinone, and juglone. In addition, several drugs in clinical use for anticancer treatment are indeed known to target TrxR1. This assay validates the cherry picked hits in the primary screening assay. NIH Molecular Libraries Probe Production Network [MLPCN] NIH Chemical Genomics Center [NCGC] MLPCN Grant: MH090846 Assay Provider: Elias Arner, Karolinska Institute
# Assay protocol: 2 uL of reagents (buffer in column 4 as negative control and 90 nM rTrxR1 in columns 1-3 and 5-48) were dispensed into Greiner black solid-bottom 1,536-well assay plates, followed by 1 uL of NADPH (400 uM final concentration) to each well. The plates were centrifuged at 1000 rpm for 15 seconds and subsequently incubated for 5 min at room temperature (~22 deg C) to allow for rTrxR1 reduction. Compounds (23 nL) were then transferred via Kalypsys pin tool equipped with 1536-pin array (10 nL slotted pins, V&P Scientific, San Diego, CA). After incubation for 15 min at room temperature, 1 uL of selenite (400 uM final concentration) were dispensed to each well. The plate was immediately transferred to a ViewLux high-throughput CCD imager (PerkinElmer), wherein kinetic measurements of NADPH fluorescence (Ex 340 nm, Em 450 nm) were acquired (8 minute kinetic read). Read 1 was utilized to assess the capacity of a compound to serve as an rTrxR1 substrate, i.e. a decrease in NADPH fluorescence compared to the no-compound background is an indication of a substrate behavior for that particular compound. For inhibitory activity of a compound, delta values, computed as the difference in fluorescence intensity between the first and last reads of an 8-minute time kinetic window, were used. All reagents were diluted in an assay buffer consisting of 50 mM Tris-HCl, pH 7.5, 2 mM EDTA, and 0.01% Tween-20.
row,Structure (SMILES),Potency
1,CN1c2ccccc2N(C)C1(C)c1cccc2ccccc12,"inconclusive: 7.52 µM [inhibitor, partial curve]"
2,COc1cc(CN2CCCCC2C(=O)Nc2ccc(Oc3ccccc3)nc2)ccc1O (stereo unspecified),"inconclusive: 2.67 µM [inhibitor, full curve]"
3,Oc1cc2c(cc1CN1CCN(c3ncccn3)CC1)OCO2,"inconclusive: 3.36 µM [inhibitor, partial curve]"
4,Cc1cccc(N2CCN(c3cc(C)nc4nnnn34)CC2C)c1 (stereo unspecified),"inconclusive: 4.74 µM [inhibitor, partial curve]"
5,CCOc1cc(CNc2ccc(N3CCCC3)cc2)cc(Cl)c1OC,"inconclusive: 8.44 µM [inhibitor, partial curve]"
6,Cc1ccc2[nH]c(=O)c(CN(CCCN3CCOCC3)Cc3nnnn3C3CCCC3)cc2c1,"inconclusive: 8.44 µM [inhibitor, partial curve]"
7,Cc1ccc(Nc2c(-c3ccc(C)o3)nc3cnccn23)cc1,"inconclusive: 13.4 µM [inhibitor, partial curve, poor fit]"
8,O=[N+]([O-])c1ccc(Cl)c(S(=O)(=O)Nc2cccc(S(=O)(=O)NC3=NCCC3)c2)c1,active: 0.597 µM
9,Cc1ccc(NC(=O)CCN2C(=O)c3ccccc3Sc3ncccc32)cc1,active: 9.47 µM
10,COC(=O)c1ccc(C2c3c(oc4ccccc4c3=O)C(=O)N2CCCN2CCOCC2)cc1 (stereo unspecified),"inconclusive: 9.47 µM [inhibitor, partial curve]"
11,CCCn1c(N)c(C(c2ccc(OC)cc2)N2CCN(c3ccccc3)CC2)c(=O)[nH]c1=O (stereo unspecified),"inconclusive: 2.67 µM [inhibitor, full curve]"
12,CCN1C(Nc2ccccc2)=NC[C@@H]1Cc1ccccc1,"inconclusive: 9.47 µM [inhibitor, partial curve]"
13,Cc1cc2nc(Sc3c([N+](=O)[O-])nc(C)n3Cc3ccccc3)[nH]c2cc1C,active: 2.99 µM
14,Cc1ccc(C2C(C(=O)c3cc4ccccc4o3)=C(O)C(=O)N2CCN2CCOCC2)cc1 (stereo unspecified),"inconclusive: 9.47 µM [inhibitor, partial curve]"
15,O=C(c1ccccc1)[C@@H]1[C@@H]2C(=O)N(c3ccc(F)cc3)C(=O)[C@@H]2C2CCCN21 (stereo partly specified),"inconclusive: 5.32 µM [inhibitor, partial curve]"
16,CCC(=O)Nc1cccc(NC(=S)NC(=O)c2cccc(C)c2)c1,active: 5.97 µM
17,O=C(/C=C/c1ccco1)Nc1cccc(-c2nc3ccccc3[nH]2)c1,"inconclusive: 9.47 µM [inhibitor, partial curve]"
18,CC(C)OC(=O)c1cn(-c2ccccc2)nc1-c1ccco1,"inconclusive: 7.52 µM [inhibitor, partial curve]"
19,COC(=O)c1ccccc1S(=O)(=O)N(Cc1ccco1)Cc1cc2cc(OC)ccc2[nH]c1=O,active: 5.97 µM
20,CC(C)(C)c1cc(CN2CCN(CCO)CC2)cc(C(C)(C)C)c1O,"inconclusive: 7.52 µM [inhibitor, partial curve]"
21,Cc1c(NC2=C(Cl)C(=O)N(c3ccccc3)C2=O)c(=O)n(-c2ccccc2)n1C,active: 2.67 µM
22,COc1cc(C(c2nnnn2C(C)(C)C)N2CCN(c3nc4ccccc4s3)CC2)ccc1O (stereo unspecified),"inconclusive: 2.99 µM [inhibitor, full curve]"
23,CCOC(=O)c1c(C)oc2c1c(CN1CCN(C(=O)OCC)CC1)c(O)c1ccccc12,"inconclusive: 0.844 µM [inhibitor, full curve]"
24,COc1cc(/C=C2/C(=O)NN(c3cccc(F)c3)C2=O)ccc1OC(=O)c1ccco1,"inconclusive: 4.74 µM [inhibitor, partial curve]"
25,Cc1cccc(C(=O)Nc2nnc(S(=O)(=O)N(C)Cc3ccco3)s2)c1,"inconclusive: 6.7 µM [inhibitor, full curve]"
26,Cc1ccc(CNC(=O)c2cn(C)c(=O)c3c2c2ccccc2n3C)o1,"inconclusive: 1.89 µM [inhibitor, partial curve]"

# Quoted from above, entries 15–16
row,Structure (SMILES),Potency
15,O=C(c1ccccc1)[C@@H]1[C@@H]2C(=O)N(c3ccc(F)cc3)C(=O)[C@@H]2C2CCCN21 (stereo partly specified),"inconclusive: 5.32 µM [inhibitor, partial curve]"
16,CCC(=O)Nc1cccc(NC(=S)NC(=O)c2cccc(C)c2)c1,active: 5.97 µM
